Laboratory results published in publication PMC12519261.
Results are given in words; binding and its absence hold for the method and conditions named. Some results given as binding are weak or reduced against the parent protein; the word gives no strength.

By UniProt entry, the sequences of proteins in these tests, tags left out. Residues count along the entry.
UniProt Q07021, residues 74-282: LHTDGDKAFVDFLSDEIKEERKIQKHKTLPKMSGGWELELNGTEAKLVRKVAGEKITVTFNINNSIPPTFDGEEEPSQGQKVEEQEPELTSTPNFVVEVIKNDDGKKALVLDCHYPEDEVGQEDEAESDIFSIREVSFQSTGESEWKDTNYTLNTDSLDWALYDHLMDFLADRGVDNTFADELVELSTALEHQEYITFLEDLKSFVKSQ

Biological target: recombinant p32 protein (UniProt Q07021)
Experiment: pull-down; Ni-NTA magnetic agarose beads coated with p32 (15 ug protein/10 uL beads); fluorescent HLPNs incubated 1 h at room temperature without uPA; 0.05% Tween-20 and 5 mM imidazole in PBS pH 7.4; eluted with 400 mM imidazole, fluorescence of the eluate read; both purified

In the case of AKRGARSTA (FAM (carboxyfluorescein) label; conjugated to the surface of HLPNs) [LinTT1 peptide (FAM-labeled) conjugated to hybrid lipid-polymer nanoparticles (LinTT1-HLPNs)], the binding is reported as “binds”.
